## Screening data, single-dose tests

Source: ChEMBL document CHEMBL3988442, “University of Dundee, Small-Polar-MMV Screening Library” (2021).

Each number is a percent effect as filed.
The controls that fix the scale are not given in the record; negative values are as filed.
The compounds are a random part of those screened.

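Whole-cell growth test on Mycobacterium tuberculosis, read after 3 days in glucose-containing 7H9 medium; the read-out is not stated. Compounds at 500 µM. The record gives no direction; compounds that gave an IC50 in retests scored well above the rest, so higher reads as more growth inhibition. About 18,000 compounds were tested under these conditions; 7.9% (about 1,400) showed 50% or more at least once.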

{"structure": "O=C(Cc1ccccc1)OCCN1CCOCC1", "effect": 7.931}
{"structure": "CN(C(=O)Cc1c[nH]c(=O)[nH]c1=O)C1CCSCC1", "effect": -13.7}
{"structure": "CS(=O)(=O)CCNC(=O)NCc1ccc(C#N)cc1F", "effect": -1.574}
{"structure": "CC(O)CN1CCN(C(=O)CN(C)C2CC2)CC1", "stereo": "stereo not drawn", "effect": 2.709}
{"structure": "CC(C)[C@@H]1CN(C(=O)c2ccncc2F)C[C@H]1N(C)C", "effect": 3.487}
{"structure": "NCc1ccc2c(c1)C(=O)NCC2", "effect": 10.3}
{"structure": "Cc1ccc(-c2noc(C(C)N)n2)cc1F", "stereo": "stereo not drawn", "effect": 69.02}
{"structure": "Nc1ccsc1C(=O)N1CC[C@@H](N)[C@H](O)C1", "effect": 19.2}
{"structure": "CC1(C(F)F)CNCCO1", "stereo": "stereo not drawn", "effect": -5.496}
{"structure": "CNC(=O)C1CCCN1Cc1cccc(C(=O)OC)c1", "stereo": "stereo not drawn", "effect": 20.66}
{"structure": "CN(CC(=O)NC(C)(C)C)CC1(O)CCCC1", "effect": 8.614}
{"structure": "Cc1ccc(NC(=O)CN2C(=O)CCC2=O)cc1C", "effect": 30.81}
{"structure": "CN(C)C(CNC(=O)Nc1ccccn1)c1ccco1", "stereo": "stereo not drawn", "effect": 19.38}
{"structure": "CC(C)CNC(=O)Cc1c[nH]c2ncccc12", "effect": 12.31}
{"structure": "COCCNC1CCCC1", "effect": 2.958}
{"structure": "COCC(=O)N(C)C1CCc2ccccc21", "stereo": "stereo not drawn", "effect": 35.56}
{"structure": "O=C(N1CCC1)C1(c2ccccc2)CC1", "effect": 17.48}
{"structure": "COc1cccc(OC(F)(F)F)c1CN", "effect": 26.67}
{"structure": "CC1(C#N)CCN(C(=O)c2ccc(O)cc2F)CC1", "effect": 5.261}
{"structure": "CN(C)C(=O)NC1CCCNC1", "stereo": "stereo not drawn", "effect": -6.324}
{"structure": "CCN(Cc1cccnc1)C(=O)c1cnc(O)cn1", "effect": -4.584}
{"structure": "O=C(NCC(=O)N1CCCC1)c1cccc2cn[nH]c12", "effect": 8.088}
{"structure": "CC1(C)CN(C(=O)c2cnc3ccccn23)CCS1", "effect": -15.3}
{"structure": "Cc1noc(C)c1CNCc1c(C)nn(CCO)c1C", "effect": -0.5555}
{"structure": "COCCC(NC(=O)NCc1ccccn1)C(C)(C)C", "stereo": "stereo not drawn", "effect": 4.522}
{"structure": "CC1CCCN(c2cc(CNS(C)(=O)=O)ccn2)C1", "stereo": "stereo not drawn", "effect": 61.12}
{"structure": "NCc1ccn(-c2ccc(F)cc2)n1", "effect": 43.22}
{"structure": "Cc1nocc1C(C)O", "stereo": "stereo not drawn", "effect": 0.07209}
{"structure": "NC1CCN(CC(F)F)CC1", "effect": -6.291}
{"structure": "O=C(C1CC12CCNCC2)N1CCCCC1", "stereo": "stereo not drawn", "effect": 2.459}
{"structure": "Cc1cc(C)c(O)c(C(=O)NCCCS(N)(=O)=O)c1", "effect": 44.55}
{"structure": "CN(C(=O)C1CC12CCNCC2)C1CC1", "stereo": "stereo not drawn", "effect": 5.676}
{"structure": "CCCC(C)N1CCN(Cc2nc(COC)no2)CC1", "stereo": "stereo not drawn", "effect": 20.87}
{"structure": "C[C@@]1(O)CCN(C(=O)COCc2ccccc2)C[C@@H]1O", "effect": 4.13}
{"structure": "NC(=O)C(OC(=O)CCc1ccc(F)cc1)C1CC1", "stereo": "stereo not drawn", "effect": 43.48}
{"structure": "O=C(NCCc1ccccn1)C1CCC1", "effect": 20.35}
{"structure": "O=C1CCC(=O)N1c1cnn(Cc2cccc(Cl)c2)c1", "effect": 23.33}
{"structure": "CC(CN)c1ccccc1", "stereo": "stereo not drawn", "effect": 5.457}
{"structure": "NCCN(Cc1ccncc1)Cc1ccncc1", "effect": 11.28}
{"structure": "O=C1CC(c2ccccc2Cl)NC(=O)N1", "stereo": "stereo not drawn", "effect": 13.31}
{"structure": "Cn1c(=O)ccn(CC(=O)NCc2ccccc2)c1=O", "effect": -7.678}
{"structure": "CCc1cnc(N2CCNCC2)s1", "effect": 21.44}
{"structure": "NCCNS(=O)(=O)c1ccc(Br)c(F)c1", "effect": 41.57}
{"structure": "CCOc1ccc(NC(=O)NC[C@@H]2C[C@H](F)CN2)cc1", "effect": 13.04}
{"structure": "Cc1ncsc1CCCNC(=O)CNC(=O)N(C)C", "effect": 3.189}
{"structure": "COCCN(Cc1ccco1)C(=O)c1cnc(C)cn1", "effect": 13.27}
{"structure": "O=C(Nc1cccc(Cl)c1)N1CCNCC1", "effect": 20.5}
{"structure": "O=C(NCCc1nnc[nH]1)c1ccc(F)cc1Cl", "effect": 12.33}
{"structure": "CCC(C(=O)Nc1ccccc1)N1CCS(=O)(=O)CC1", "stereo": "stereo not drawn", "effect": 18.15}
{"structure": "O=C(CCN1C(=O)CCC1=O)OCCc1cccs1", "effect": 12.33}
{"structure": "Cc1cc(C(=O)N2CCCN(S(C)(=O)=O)CC2)c(C)s1", "effect": 1.285}
{"structure": "CCn1cncc1CN1C[C@H](O)[C@@H](N2CCCC2)C1", "effect": -8.449}
{"structure": "Cc1cc(C(=O)NN2CCOCC2)c(C)o1", "effect": 5.104}
{"structure": "CSc1ncccc1C(=O)NCCN1CCC(C)CC1", "effect": -3.774}
{"structure": "Cc1cc(C)nc(N2CCN(S(C)(=O)=O)CC2)n1", "effect": -7.547}